For at least one compound, name, drawing or mass did not settle the structure.
Test system: subjects with chronic cluster headaches (CCH)
Assay: Chronic cluster headaches study (headache logs)
Type: in vivo, human
Text: The study took place over a 10 week period which consisted of a baseline observation period, 3 psilocybin sessions, and a follow-up period in subjects with CCH (FIG. 27). Throughout the course of the study, subjects completed questionnaires and headache logs in order to access headache frequency, duration, and severity.
Before the beginning of the study, subjects taking prophylactic medication underwent a 2 week wash-out period to eliminate medication. Subjects then began a baseline observation period lasting 4 weeks during which the subjects received a functional MRI (magnetic resonance imaging) scan. After the observation period, subjects were perorally administered their first dose of 0.14 mg/kg psilocybin. Blood samples were collected during the initial dosing session to establish psilocin plasma concentrations. Over the next two weeks, subjects were administered two additional doses of psilocybin with each dose administered one week apart. The last psilocybin dose was followed by 4 weeks of observation that included a functional MRI scan one week after the last psilocybin dose. Subjects were also contacted 6 and 12 months after the last psilocybin dose to gain information about the duration of potential remission periods. All regular acute treatments were permitted during the study period and recorded in the headache diary. […]

SMILES: CN(C)CCc1c[nH]c2cccc(OP(=O)(O)O)c12 [psilocybin]
- Frequency of headaches (0.14 mg/kg perorally x3, one subject): decrease in the frequency of headaches
- Psychedelic effects (0.14 mg/kg perorally, 3 doses one week apart, all subjects): experienced psychedelic effects

From patent publication US11865126B2, “Method for treating anxiety disorders, headache disorders, and eating disorders with psilocybin” (priority 2019, dated 2024)
